Laboratory results from the supplement of paper PMC10849652.
The list shows a part of the results.

Sequences of proteins named here, by UniProt entry; tags and fusion partners are left off. A change or cut given only in a name is not applied to a line headed by its entry.
UniProt Q15653: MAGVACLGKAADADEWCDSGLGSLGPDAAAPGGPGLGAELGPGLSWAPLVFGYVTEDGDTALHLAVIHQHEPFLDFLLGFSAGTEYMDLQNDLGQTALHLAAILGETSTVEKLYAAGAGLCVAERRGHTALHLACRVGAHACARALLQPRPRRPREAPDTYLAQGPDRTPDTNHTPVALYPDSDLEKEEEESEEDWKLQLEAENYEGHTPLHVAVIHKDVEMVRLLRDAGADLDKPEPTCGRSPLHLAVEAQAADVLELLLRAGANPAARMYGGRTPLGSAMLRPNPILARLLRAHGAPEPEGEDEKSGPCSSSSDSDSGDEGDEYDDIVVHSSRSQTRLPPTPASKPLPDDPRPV
UniProt O60361, whole entry, looked up: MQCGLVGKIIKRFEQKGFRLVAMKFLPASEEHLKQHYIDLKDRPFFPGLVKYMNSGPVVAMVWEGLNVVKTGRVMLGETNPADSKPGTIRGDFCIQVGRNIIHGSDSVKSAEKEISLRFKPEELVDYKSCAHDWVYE
UniProt P10588: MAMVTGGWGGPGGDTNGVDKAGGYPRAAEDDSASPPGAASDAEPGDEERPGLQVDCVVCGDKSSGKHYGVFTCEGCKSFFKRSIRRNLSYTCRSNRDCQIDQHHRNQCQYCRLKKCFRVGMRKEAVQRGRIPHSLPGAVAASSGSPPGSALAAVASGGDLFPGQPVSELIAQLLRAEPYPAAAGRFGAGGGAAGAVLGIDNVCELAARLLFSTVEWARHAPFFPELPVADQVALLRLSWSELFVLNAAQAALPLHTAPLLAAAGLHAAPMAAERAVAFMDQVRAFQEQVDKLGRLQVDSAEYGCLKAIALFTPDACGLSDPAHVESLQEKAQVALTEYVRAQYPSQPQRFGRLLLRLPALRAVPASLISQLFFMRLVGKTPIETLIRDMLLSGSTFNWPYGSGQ
UniProt Q7RTR2: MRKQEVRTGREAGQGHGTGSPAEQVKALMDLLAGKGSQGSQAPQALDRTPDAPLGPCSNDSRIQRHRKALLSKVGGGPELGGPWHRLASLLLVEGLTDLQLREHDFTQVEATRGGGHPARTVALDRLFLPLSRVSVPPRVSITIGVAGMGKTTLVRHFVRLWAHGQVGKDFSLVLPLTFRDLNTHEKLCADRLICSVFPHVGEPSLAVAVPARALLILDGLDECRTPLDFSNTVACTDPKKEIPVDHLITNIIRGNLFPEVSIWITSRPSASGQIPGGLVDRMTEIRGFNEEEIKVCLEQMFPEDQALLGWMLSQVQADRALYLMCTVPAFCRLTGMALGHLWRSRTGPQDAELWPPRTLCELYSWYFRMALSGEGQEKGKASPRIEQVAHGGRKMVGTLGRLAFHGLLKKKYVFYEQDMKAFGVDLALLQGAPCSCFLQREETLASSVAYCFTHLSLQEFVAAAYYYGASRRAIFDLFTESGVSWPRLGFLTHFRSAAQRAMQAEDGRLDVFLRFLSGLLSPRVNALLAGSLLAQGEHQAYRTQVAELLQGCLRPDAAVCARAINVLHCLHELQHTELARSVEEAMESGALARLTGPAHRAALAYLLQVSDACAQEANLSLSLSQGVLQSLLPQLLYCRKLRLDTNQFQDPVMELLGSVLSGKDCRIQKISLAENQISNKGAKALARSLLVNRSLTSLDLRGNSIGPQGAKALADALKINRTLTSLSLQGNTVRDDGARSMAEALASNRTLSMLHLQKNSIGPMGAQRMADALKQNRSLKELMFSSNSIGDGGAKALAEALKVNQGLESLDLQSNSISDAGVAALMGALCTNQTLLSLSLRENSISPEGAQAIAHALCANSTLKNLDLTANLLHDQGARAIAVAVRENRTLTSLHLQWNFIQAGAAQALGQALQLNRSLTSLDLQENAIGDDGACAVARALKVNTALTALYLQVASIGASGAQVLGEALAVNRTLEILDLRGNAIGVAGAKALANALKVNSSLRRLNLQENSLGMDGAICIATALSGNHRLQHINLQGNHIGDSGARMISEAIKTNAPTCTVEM
UniProt Q9UFN0: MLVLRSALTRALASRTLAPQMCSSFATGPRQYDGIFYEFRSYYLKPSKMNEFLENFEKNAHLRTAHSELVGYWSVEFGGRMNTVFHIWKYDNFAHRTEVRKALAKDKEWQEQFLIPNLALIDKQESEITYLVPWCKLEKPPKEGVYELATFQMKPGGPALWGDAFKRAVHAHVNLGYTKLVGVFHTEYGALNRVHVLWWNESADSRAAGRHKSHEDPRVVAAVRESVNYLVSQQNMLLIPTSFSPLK
UniProt P61916: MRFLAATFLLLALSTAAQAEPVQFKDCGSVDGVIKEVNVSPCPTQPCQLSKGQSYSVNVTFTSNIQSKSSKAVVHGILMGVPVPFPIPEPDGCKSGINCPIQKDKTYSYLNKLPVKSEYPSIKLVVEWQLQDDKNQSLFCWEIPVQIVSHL
UniProt Q9HBL8: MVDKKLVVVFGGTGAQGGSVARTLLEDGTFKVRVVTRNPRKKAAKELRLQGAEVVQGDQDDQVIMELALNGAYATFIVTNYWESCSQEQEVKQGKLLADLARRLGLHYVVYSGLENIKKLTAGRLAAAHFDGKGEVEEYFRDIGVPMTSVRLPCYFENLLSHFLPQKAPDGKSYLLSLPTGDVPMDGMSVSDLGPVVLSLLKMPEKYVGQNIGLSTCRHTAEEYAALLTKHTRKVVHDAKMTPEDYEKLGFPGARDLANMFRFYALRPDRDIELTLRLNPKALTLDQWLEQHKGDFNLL
UniProt Q92686, whole entry, looked up: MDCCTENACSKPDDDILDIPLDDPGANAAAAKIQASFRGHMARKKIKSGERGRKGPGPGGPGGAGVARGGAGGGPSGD
UniProt Q8N5F7: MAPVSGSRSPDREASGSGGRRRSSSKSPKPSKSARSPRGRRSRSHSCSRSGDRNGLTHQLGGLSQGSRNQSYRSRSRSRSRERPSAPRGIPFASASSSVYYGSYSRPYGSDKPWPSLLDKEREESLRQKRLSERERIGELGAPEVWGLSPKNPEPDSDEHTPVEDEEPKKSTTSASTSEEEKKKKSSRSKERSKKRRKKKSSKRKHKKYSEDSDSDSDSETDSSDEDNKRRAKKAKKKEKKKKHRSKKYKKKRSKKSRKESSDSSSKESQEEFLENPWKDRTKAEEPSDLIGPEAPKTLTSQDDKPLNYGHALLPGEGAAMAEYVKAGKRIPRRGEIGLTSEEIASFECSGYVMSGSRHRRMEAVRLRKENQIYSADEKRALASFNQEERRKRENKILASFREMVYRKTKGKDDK
UniProt P46087: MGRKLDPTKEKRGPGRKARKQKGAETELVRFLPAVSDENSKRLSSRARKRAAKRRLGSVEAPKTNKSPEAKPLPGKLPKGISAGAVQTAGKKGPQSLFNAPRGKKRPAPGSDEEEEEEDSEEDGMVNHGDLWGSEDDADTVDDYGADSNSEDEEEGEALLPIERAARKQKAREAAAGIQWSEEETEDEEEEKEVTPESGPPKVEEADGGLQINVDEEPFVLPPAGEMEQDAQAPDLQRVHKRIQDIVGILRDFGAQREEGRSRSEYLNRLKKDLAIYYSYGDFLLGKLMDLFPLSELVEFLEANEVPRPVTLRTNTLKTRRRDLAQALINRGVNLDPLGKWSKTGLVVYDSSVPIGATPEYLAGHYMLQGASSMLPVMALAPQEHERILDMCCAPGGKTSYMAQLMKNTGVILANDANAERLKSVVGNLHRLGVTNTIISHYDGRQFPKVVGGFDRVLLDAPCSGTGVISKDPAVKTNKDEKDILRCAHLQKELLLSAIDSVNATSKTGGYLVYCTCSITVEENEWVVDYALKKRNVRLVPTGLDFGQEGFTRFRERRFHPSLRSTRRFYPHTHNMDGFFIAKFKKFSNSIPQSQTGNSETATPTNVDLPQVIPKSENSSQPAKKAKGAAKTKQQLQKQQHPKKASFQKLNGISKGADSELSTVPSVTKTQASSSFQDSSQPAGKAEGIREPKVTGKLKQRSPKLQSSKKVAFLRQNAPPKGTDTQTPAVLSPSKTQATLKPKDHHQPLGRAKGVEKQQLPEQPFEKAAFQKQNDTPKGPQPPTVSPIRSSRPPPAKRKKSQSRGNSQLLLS
UniProt Q9Y2X3: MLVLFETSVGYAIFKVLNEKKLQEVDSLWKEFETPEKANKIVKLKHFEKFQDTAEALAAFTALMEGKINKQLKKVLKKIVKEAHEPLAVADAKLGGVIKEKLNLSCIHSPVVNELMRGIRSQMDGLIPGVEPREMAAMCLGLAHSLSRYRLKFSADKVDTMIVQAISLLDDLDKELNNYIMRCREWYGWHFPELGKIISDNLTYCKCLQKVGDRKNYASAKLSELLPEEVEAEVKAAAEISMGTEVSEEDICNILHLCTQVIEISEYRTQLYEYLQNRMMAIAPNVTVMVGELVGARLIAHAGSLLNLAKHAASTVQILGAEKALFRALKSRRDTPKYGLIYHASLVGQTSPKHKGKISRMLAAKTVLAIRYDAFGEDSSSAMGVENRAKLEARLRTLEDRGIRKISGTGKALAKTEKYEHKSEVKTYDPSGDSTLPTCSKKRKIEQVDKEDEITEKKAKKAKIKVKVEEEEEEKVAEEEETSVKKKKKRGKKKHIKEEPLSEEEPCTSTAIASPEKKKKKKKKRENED
UniProt Q9UMY1: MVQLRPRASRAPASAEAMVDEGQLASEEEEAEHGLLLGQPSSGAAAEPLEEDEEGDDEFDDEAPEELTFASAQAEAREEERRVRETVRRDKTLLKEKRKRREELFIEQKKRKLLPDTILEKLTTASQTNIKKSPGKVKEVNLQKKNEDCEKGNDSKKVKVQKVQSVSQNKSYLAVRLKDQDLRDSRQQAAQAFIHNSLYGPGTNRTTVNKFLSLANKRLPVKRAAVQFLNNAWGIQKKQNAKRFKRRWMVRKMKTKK
UniProt Q15738: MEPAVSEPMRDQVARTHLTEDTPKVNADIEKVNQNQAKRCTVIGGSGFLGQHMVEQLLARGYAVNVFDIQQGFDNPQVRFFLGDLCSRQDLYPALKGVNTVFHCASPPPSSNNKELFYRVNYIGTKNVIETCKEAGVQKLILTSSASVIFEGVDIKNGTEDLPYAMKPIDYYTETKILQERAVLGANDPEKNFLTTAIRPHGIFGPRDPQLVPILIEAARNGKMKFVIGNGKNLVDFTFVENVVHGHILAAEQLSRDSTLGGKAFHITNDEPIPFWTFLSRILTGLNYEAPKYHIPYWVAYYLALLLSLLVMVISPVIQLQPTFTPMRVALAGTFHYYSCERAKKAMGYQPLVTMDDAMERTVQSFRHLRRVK
UniProt Q9UMX5: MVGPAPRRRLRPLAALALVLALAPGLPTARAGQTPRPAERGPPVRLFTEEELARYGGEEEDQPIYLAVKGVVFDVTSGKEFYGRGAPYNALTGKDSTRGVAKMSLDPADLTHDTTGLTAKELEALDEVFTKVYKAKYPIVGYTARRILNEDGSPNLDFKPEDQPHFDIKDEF
UniProt Q8WX92, whole entry, looked up: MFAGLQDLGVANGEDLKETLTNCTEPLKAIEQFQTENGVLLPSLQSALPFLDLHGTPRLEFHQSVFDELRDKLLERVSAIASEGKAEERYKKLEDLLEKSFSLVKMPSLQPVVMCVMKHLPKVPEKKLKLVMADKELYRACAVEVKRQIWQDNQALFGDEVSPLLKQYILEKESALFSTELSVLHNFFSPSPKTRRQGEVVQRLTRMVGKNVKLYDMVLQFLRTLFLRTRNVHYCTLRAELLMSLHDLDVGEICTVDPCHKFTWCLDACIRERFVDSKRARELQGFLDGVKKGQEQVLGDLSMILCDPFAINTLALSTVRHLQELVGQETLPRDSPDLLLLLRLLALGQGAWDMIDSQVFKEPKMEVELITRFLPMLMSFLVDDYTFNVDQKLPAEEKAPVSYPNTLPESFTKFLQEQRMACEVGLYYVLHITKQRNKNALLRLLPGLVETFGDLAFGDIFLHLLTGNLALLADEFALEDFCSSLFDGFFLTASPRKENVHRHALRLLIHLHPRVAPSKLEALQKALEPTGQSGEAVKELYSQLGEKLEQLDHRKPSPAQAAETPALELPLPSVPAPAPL
UniProt Q16621: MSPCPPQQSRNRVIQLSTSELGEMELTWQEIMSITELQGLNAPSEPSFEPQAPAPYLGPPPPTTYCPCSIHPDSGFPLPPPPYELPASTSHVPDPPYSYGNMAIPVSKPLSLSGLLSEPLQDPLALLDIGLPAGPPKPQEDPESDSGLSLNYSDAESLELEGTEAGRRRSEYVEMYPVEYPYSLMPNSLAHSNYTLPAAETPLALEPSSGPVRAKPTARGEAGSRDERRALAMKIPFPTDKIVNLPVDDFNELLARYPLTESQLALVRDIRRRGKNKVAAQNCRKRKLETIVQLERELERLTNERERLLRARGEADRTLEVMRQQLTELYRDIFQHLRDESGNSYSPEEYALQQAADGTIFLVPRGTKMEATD
UniProt Q9BPW8: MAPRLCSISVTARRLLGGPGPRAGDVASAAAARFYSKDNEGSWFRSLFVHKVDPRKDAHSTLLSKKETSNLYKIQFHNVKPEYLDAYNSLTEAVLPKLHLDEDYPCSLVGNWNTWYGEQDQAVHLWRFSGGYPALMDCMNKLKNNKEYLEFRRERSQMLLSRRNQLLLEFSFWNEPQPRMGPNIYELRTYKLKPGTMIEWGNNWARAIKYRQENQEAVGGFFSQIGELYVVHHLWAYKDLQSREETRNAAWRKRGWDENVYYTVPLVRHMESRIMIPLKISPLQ

Tests used:
Assay in all cases: log2 fold change, soluble protein after heating vs DMSO (PISA); higher = thermal stabilisation; K562 cells, 10 uM, 30 min; active = over 0.2 and 3.5 SD of the protein, either way, in both replicates (recomputed)
[1] = compound: C#Cc1cccc(Nc2ncnc3cc(OCCOC)c(OCCOC)cc23)c1 [erlotinib]
In short: (§1)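 Values are thermal stability changes relative to control samples and are taken from duplicates. They are stated as log2 fold changes. Before quantification by TMTpro 16plex LC-MS/MS with equalised channel sums, K562 cells at 2×10^6 cells/mL were treated with 10 μM compound for 30 min, heated in aliquots for 3 min across 48°C-58°C, pooled, extracted in PBS with 0.5% NP-40 at 4°C, and centrifuged at 21,000xg for 90 min to give the soluble supernatant.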

[2] = compound: C/C(=N\NC(=O)C1=CC(=CC=C1)S(=O)(=O)N2CCOCC2)/C3=C(C=CC(=C3)Cl)O
In short: as §1

[3] = compound: C1=CC(=C(C=C1Cl)C2=NC3=NC=CN=C3C(=N2)NC4=CC=NC=C4)F
In short: as §1

[4] = compound: C1=CC(=CC=C1C2=NC3=C(N2)C=C(C=C3)C(=O)N)OC4=CC=C(C=C4)Cl
In short: as §1

[5] = compound: C1=CC2=C(C=CC(=C2)/C=C\3/C(=O)NC(=NCC4=CC=CS4)S3)N=C1
In short: as §1

[6] = compound: C1=CC2=NC=CN=C2C=C1/C=C/3\C(=O)NC(=O)S3
In short: as §1

[7] = compound: C1=CC=C(C=C1)C2=NC(=C(N2)C3=CC=NC=C3)C4=CC(=C(C=C4)Cl)O
In short: as §1

[8] = compound: C1=CC=C2C(=C1)C3=NNC4=CC=CC(=C43)C2=O
In short: as §1

[9] = compound: C1CCN(C1)C(=O)NC2=CC=CC(=C2)NC3=NC=C(C(=N3)NCCC4=CN=CN4)Br
In short: as §1

[10] = compound: C1CN(CCC1(CC2=CC=C(C=C2)Cl)N)C3=NC=NC4=C3C=CN4
In short: as §1

Target	log2 fold change [1]	log2 fold change [2]	log2 fold change [3]	log2 fold change [4]	log2 fold change [5]	log2 fold change [6]	log2 fold change [7]	log2 fold change [8]	log2 fold change [9]	log2 fold change [10]
NFXL1 (UniProt Q6ZNB6)	inactive: -0.043	inactive: 0.01	inactive: 0.029	inactive: 0.015	inactive: -0.043	inactive: -0.019	inactive: -0.028	inactive: -0.193	inactive: -0.08	inactive: 0.047
NPEPPS (UniProt P55786)	inactive: 0.002	inactive: 0.058	inactive: 0.054	inactive: -0.027	inactive: 0.061	inactive: 0.002	inactive: 0.005	inactive: 0.035	inactive: -0.009	inactive: 0.045
NFKBIB (UniProt Q15653)	inactive: -0.017	inactive: -0.029	inactive: 0.039	inactive: 0.018	inactive: 0.047	inactive: 0.051	inactive: 0.049	inactive: 0.06	inactive: -0.082	inactive: 0.044
NME2P1 (UniProt O60361)	inactive: 0.147	inactive: 0.012	inactive: 0.147	inactive: 0.03	inactive: 0.04	inactive: 0.137	inactive: -0.163	inactive: 0.026	inactive: 0.076	inactive: 0.078
NMT2 (UniProt O60551)	inactive: 0.028	inactive: 0.031	inactive: 0.007	inactive: 0.004	inactive: 0.062	inactive: 0.032	inactive: -0.043	inactive: 0.021	inactive: 0.041	active: -0.369
NR2F6 (UniProt P10588)	inactive: -0.207	inactive: 0.039	inactive: -0.03	inactive: 0.155	inactive: 0.039	inactive: 0.014	inactive: 0.013	inactive: -0.105	inactive: -0.028	inactive: -0.115
NLRC3 isoform 2 (UniProt Q7RTR2)	inactive: 0.266	inactive: -0.176	inactive: -0.097	inactive: -0.062	inactive: 0.569	inactive: 0.048	inactive: -0.315	inactive: -0.06	–	–
NOA1 (UniProt Q8NC60)	inactive: 0.133	inactive: 0.038	inactive: -0.283	inactive: -0.008	inactive: 0.11	inactive: 0.056	inactive: -0.034	inactive: 0.073	inactive: 0.081	inactive: -0.015
NFX1 (UniProt Q12986)	inactive: 0.065	inactive: -0.024	inactive: -0.26	inactive: 0.058	inactive: 0.042	inactive: -0.069	inactive: -0.039	inactive: -0.107	inactive: 0.014	inactive: 0.048
NIPSNAP3A (UniProt Q9UFN0)	inactive: 0.004	inactive: -0.002	inactive: 0.023	inactive: 0.015	inactive: -0.005	inactive: 0.029	inactive: -0.043	inactive: 0.031	inactive: 0.003	inactive: 0.033
NIPSNAP2 (UniProt O75323)	inactive: 0.024	inactive: 0.065	inactive: 0.076	inactive: 0.106	inactive: 0.044	inactive: -0.079	inactive: 0.071	inactive: 0.041	inactive: 0.01	inactive: 0.007
NRDC isoform 2 (UniProt O43847)	inactive: -0.016	inactive: 0.081	inactive: 0.012	inactive: -0.024	inactive: 0.021	inactive: 0.024	inactive: 0.027	inactive: 0.057	inactive: -0.046	inactive: 0.049
NPC2 (UniProt P61916)	inactive: 0.007	inactive: -0.074	inactive: 0.052	inactive: 0.008	inactive: -0.018	inactive: 0.089	inactive: 0.085	inactive: 0.073	inactive: 0.004	inactive: 0.016
NMRAL1 (UniProt Q9HBL8)	inactive: 0.239	inactive: -0.118	active: 0.841	inactive: -0.054	inactive: 0.098	inactive: 0.141	inactive: 0.029	inactive: 0.273	inactive: -0.055	inactive: 0.037
NPL (UniProt Q9BXD5)	inactive: -0.001	inactive: 0.059	inactive: 0.018	inactive: 0.05	inactive: 0.167	inactive: -0.004	inactive: -0.029	inactive: -0.144	inactive: 0.069	inactive: 0.119
NMNAT1 (UniProt Q9HAN9)	inactive: 0.033	inactive: -0.145	inactive: -0.302	inactive: -0.111	inactive: -0.032	inactive: 0.03	inactive: -0.102	inactive: -0.008	inactive: 0.157	inactive: -0.046
NELFA (UniProt Q9H3P2)	inactive: 0.21	inactive: 0.231	inactive: 0.059	inactive: -0.061	inactive: 0.073	inactive: 0.111	inactive: 0.048	inactive: 0	inactive: -0.323	inactive: -0.028
NPTN (UniProt Q9Y639)	inactive: -0.013	inactive: 0.057	inactive: 0.036	inactive: -0.027	inactive: -0.105	inactive: 0.008	inactive: 0.036	inactive: 0.033	inactive: -0.017	inactive: 0.04
NRGN (UniProt Q92686)	inactive: 0.066	inactive: 0.086	inactive: 0.054	inactive: -0.074	inactive: -0.264	inactive: -0.027	inactive: 0.139	inactive: 0.105	–	–
NKAP (UniProt Q8N5F7)	inactive: 0.029	inactive: 0.023	inactive: -0.041	inactive: 0.041	inactive: -0.189	inactive: -0.047	inactive: -0.085	inactive: -0.051	inactive: -0.064	inactive: -0.007
NOP2 isoform 4 (UniProt P46087)	inactive: -0.17	inactive: -0.261	inactive: -0.349	inactive: -0.064	inactive: -0.045	inactive: 0.272	inactive: -0.255	inactive: 0.078	inactive: 0.023	inactive: 0.006
NOP58 (UniProt Q9Y2X3)	inactive: -0.013	inactive: 0.001	inactive: -0.332	inactive: -0.001	inactive: -0.043	inactive: 0.034	inactive: -0.055	inactive: -0.126	inactive: -0.156	inactive: -0.143
NMD3 (UniProt Q96D46)	inactive: 0.025	inactive: 0.011	inactive: 0.052	inactive: 0.023	inactive: 0.009	inactive: -0.02	inactive: 0.05	inactive: 0.013	inactive: 0.064	active: -0.281
NOL7 (UniProt Q9UMY1)	inactive: -0.151	inactive: -0.208	active: -0.728	inactive: 0.005	inactive: -0.179	inactive: 0	inactive: -0.071	inactive: -0.058	inactive: 0.045	inactive: -0.189
NSDHL (UniProt Q15738)	inactive: -0.007	inactive: 0.107	inactive: 0.047	inactive: 0.021	inactive: 0	inactive: -0.149	inactive: 0.065	inactive: 0.059	inactive: -0.039	inactive: -0.005
NENF (UniProt Q9UMX5)	inactive: 0.037	inactive: 0.039	inactive: 0.055	inactive: -0.016	inactive: 0.009	inactive: 0.032	inactive: -0.03	inactive: 0.015	inactive: 0.035	inactive: 0.003
NELFB isoform 2 (UniProt Q8WX92)	inactive: 0.046	inactive: 0.151	inactive: 0	inactive: -0.036	inactive: 0.054	inactive: 0.07	inactive: -0.049	inactive: 0.01	inactive: -0.075	inactive: -0.025
NFE2 (UniProt Q16621)	inactive: 0.009	inactive: 0.005	inactive: -0.025	inactive: -0.001	inactive: -0.002	inactive: 0.158	inactive: -0.012	inactive: -0.009	inactive: -0.02	inactive: -0.019
NR2C2 isoform 2 (UniProt P49116)	inactive: -0.001	inactive: -0.067	inactive: -0.011	inactive: 0.006	inactive: 0.019	inactive: -0.039	inactive: -0.003	inactive: -0.091	inactive: 0.074	inactive: 0.007
NIPSNAP1 (UniProt Q9BPW8)	inactive: 0.032	inactive: 0.075	inactive: -0.005	inactive: 0.114	inactive: 0.155	inactive: -0.084	inactive: 0.071	inactive: 0.088	inactive: 0.005	inactive: 0.081

As entered above:
NOP2 isoform 4 (UniProt P46087) – log2 fold change [4]: inactive: -0.064
NFKBIB (UniProt Q15653) – log2 fold change [2]: inactive: -0.029

Taken from the listing for reference:
Target	log2 fold change [1]	log2 fold change [2]	log2 fold change [3]	log2 fold change [4]	log2 fold change [5]	log2 fold change [6]	log2 fold change [7]	log2 fold change [8]	log2 fold change [9]	log2 fold change [10]
NPEPPS (UniProt P55786)	inactive: 0.002	inactive: 0.058	inactive: 0.054	inactive: -0.027	inactive: 0.061	inactive: 0.002	inactive: 0.005	inactive: 0.035	inactive: -0.009	inactive: 0.045
NFKBIB (UniProt Q15653)	inactive: -0.017	inactive: -0.029	inactive: 0.039	inactive: 0.018	inactive: 0.047	inactive: 0.051	inactive: 0.049	inactive: 0.06	inactive: -0.082	inactive: 0.044
